Values from PubChem BioAssay AID1259314 (Drosophila RNAi Screening Center, 2017)

Assay: 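Transmembrane protein genes affecting ATP after manganese overload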 (primary screen)
Cell system: Drosophila S2R+ cells
Reagents: long dsRNA against Drosophila genes
Time to read-out: 5 days (4 days knock-down, then 1 day metal exposure)
Treatment: manganese chloride added to 15 mM for 24 hours
Measured: 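Cellular ATP measured by luciferase light, scaled to the plate mean, averaged across replicates and z-scored over plates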
Reading the numbers: mean ATP z-score: higher = more ATP than the plate average, more viable cells under manganese
Hit rule: 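Called active when the mean ATP z-score is above 1.5 or below -1.5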
Meaning of the calls: active = strong ATP change, up or down; inactive = no strong ATP change
The whole screen tested about 3,100 reagents; below is an unselected part. 289 of them (9.3%) were called active. 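Active includes both higher and lower ATP than plate average; check the z-score sign for direction.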 Reagents against one gene are numbered here. A plus sign joins genes that one reagent is predicted to hit. Not given: the amount of reagent.

Gene	reagent no.	mean ATP z-score	Call
ND-MWFE (NADH dehydrogenase (ubiquinone) MWFE subunit)	1	-0.0791	inactive
CG2126	1	-0.00696	inactive
CG1090	1	0.126	inactive
foi (fear-of-intimacy)	1	-0.984	inactive
foi (fear-of-intimacy)	2	-1.44	inactive
CG10183	1	0.535	inactive
CG10183	2	0.186	inactive
Gr36b (Gustatory receptor 36b)	1	0.287	inactive
Gr36b (Gustatory receptor 36b)	2	0.482	inactive
sut4 (sugar transporter 4)	1	-0.387	inactive
sut4 (sugar transporter 4)	2	-0.197	inactive
Marf (Mitochondrial assembly regulatory factor)	1	-2.95	active
140up (upstream of RpII140)	1	-1.28	inactive
140up (upstream of RpII140)	2	-1.73	active
dsb (debris buster)	1	-0.688	inactive
fbl (fumble)	1	-0.475	inactive
fbl (fumble)	2	-0.755	inactive
Gr2a (Gustatory receptor 2a)	1	-0.361	inactive
Gr2a (Gustatory receptor 2a)	2	-0.206	inactive
ogre (optic ganglion reduced)	1	0.712	inactive
ogre (optic ganglion reduced)	2	-0.569	inactive
Gr57a (Gustatory receptor 57a)	1	-0.462	inactive
CG14196	1	-0.171	inactive
CG14196	2	-0.861	inactive
CG4743	1	-0.298	inactive
CG10413	1	0.15	inactive
CG12490 + CG30265	1	-0.336	inactive
Sur-8	1	-0.392	inactive
CG14694	1	-0.111	inactive
Or69a (Odorant receptor 69a)	1	-0.84	inactive
Or69a (Odorant receptor 69a)	2	-0.216	inactive
CG32262	1	0.471	inactive
CG32262	2	-0.816	inactive
nan (nanchung)	1	-1.41	inactive
nan (nanchung)	2	-0.595	inactive
S2P (site-2 protease)	1	-0.076	inactive
S2P (site-2 protease)	2	2.03	active
Or59c (Odorant receptor 59c)	1	0.282	inactive
Or59c (Odorant receptor 59c)	2	1.55	active
CR12628 + Mgstl	1	3.64	active
CR12628 + Mgstl	2	2.56	active
Itpr (Inositol 1,4,5,-trisphosphate receptor)	1	-0.771	inactive
Itpr (Inositol 1,4,5,-trisphosphate receptor)	2	-0.584	inactive
CG42638 + Trpml	1	-0.486	inactive
CG42638 + Trpml	2	-0.21	inactive
Gr98b (Gustatory receptor 98b)	1	-0.151	inactive
Gr98b (Gustatory receptor 98b)	2	-0.664	inactive
sog (short gastrulation)	1	-0.287	inactive
Ten-a (Tenascin accessory)	1	-0.257	inactive
Ten-a (Tenascin accessory)	2	-0.094	inactive
CG42594	1	0.717	inactive
CG42594	2	-0.978	inactive
Nrg (Neuroglian)	1	3.48	active
Nrg (Neuroglian)	2	-0.556	inactive
Nrg (Neuroglian)	3	-0.989	inactive
kumpel (kin of rumpel)	1	0.813	inactive
kumpel (kin of rumpel)	2	2.76	active
kumpel (kin of rumpel)	3	0.771	inactive
kumpel (kin of rumpel)	4	0.504	inactive
kumpel (kin of rumpel)	5	-0.0823	inactive
kumpel (kin of rumpel)	6	0.307	inactive
kumpel (kin of rumpel)	7	2.59	active
kumpel (kin of rumpel)	8	-0.126	inactive
kumpel (kin of rumpel)	9	0.00373	inactive
kumpel (kin of rumpel)	10	3.42	active
ATP8B (ATPase 8B)	1	-0.179	inactive
Ir31a (Ionotropic receptor 31a)	1	-1.17	inactive
CG4332	1	1.05	inactive
CG4332	2	0.128	inactive
CG31103	1	-0.566	inactive
gcl (germ cell-less)	1	0.78	inactive
gcl (germ cell-less)	2	-0.607	inactive

Copied from above, 9 entries:
Gene	reagent no.	mean ATP z-score	Call
Or69a (Odorant receptor 69a)	2	-0.216	inactive
CG32262	1	0.471	inactive
CG32262	2	-0.816	inactive
nan (nanchung)	1	-1.41	inactive
nan (nanchung)	2	-0.595	inactive
S2P (site-2 protease)	1	-0.076	inactive
S2P (site-2 protease)	2	2.03	active
Or59c (Odorant receptor 59c)	1	0.282	inactive
Or59c (Odorant receptor 59c)	2	1.55	active

The results go on.
Gene	reagent no.	mean ATP z-score	Call
Toll-4	1	-0.809	inactive
Toll-4	2	-0.439	inactive
Vha16-1 (Vacuolar H[+] ATPase 16kD subunit 1)	1	-0.558	inactive
ru (roughoid)	1	-0.188	inactive
ru (roughoid)	2	-0.208	inactive
mew (multiple edematous wings)	1	-0.341	inactive
mew (multiple edematous wings)	2	-0.636	inactive
brv2 (brivido-2)	1	-0.0442	inactive
brv2 (brivido-2)	2	0.246	inactive
Stim (Stromal interaction molecule)	1	1.91	active
Stim (Stromal interaction molecule)	2	0.592	inactive
Or23a (Odorant receptor 23a)	1	0.449	inactive
Or23a (Odorant receptor 23a)	2	1.07	inactive
CngB (Cyclic nucleotide-gated ion channel subunit B)	1	-1.06	inactive
ppk27 (pickpocket 27)	1	-0.316	inactive
bwa (brain washing)	1	-0.275	inactive
bwa (brain washing)	2	0.254	inactive
CG42685	1	-0.321	inactive
CG42685	2	-0.789	inactive
Pvr (PDGF- and VEGF-receptor related)	1	0.538	inactive
Pvr (PDGF- and VEGF-receptor related)	2	3.28	active
Pvr (PDGF- and VEGF-receptor related)	3	3.64	active
CG30471	1	0.0507	inactive
Atet (ABC transporter expressed in trachea)	1	-0.358	inactive
Atet (ABC transporter expressed in trachea)	2	0.308	inactive
Ncc69 (sodium chloride cotransporter 69)	1	-0.281	inactive
Ncc69 (sodium chloride cotransporter 69)	2	-0.114	inactive
CG11099	1	-0.474	inactive
asRNA:CR43429 + Impbeta11	1	0.742	inactive
asRNA:CR43429 + Impbeta11	2	-0.183	inactive
Vha100-2 (Vacuolar H[+] ATPase 100kD subunit 2)	1	1.02	inactive
Vha100-2 (Vacuolar H[+] ATPase 100kD subunit 2)	2	0.625	inactive
CG31760	1	-1.75	active
CG31760	2	2.07	active
SsRbeta (Signal sequence receptor beta)	1	0.324	inactive
Ac76E (Adenylyl cyclase 76E)	1	-1.42	inactive
Ac76E (Adenylyl cyclase 76E)	2	2.17	active
Adgf-A2 (Adenosine deaminase-related growth factor A2)	1	0.467	inactive
Adgf-A2 (Adenosine deaminase-related growth factor A2)	2	-0.448	inactive
